This note sets out measurements from paper PMC6338662.

Chains of the proteins cited; added tags and fusions are not shown. Lines headed by an entry give the natural chain unless they say otherwise; changes in a name come on top.
UniProt Q8NEM0: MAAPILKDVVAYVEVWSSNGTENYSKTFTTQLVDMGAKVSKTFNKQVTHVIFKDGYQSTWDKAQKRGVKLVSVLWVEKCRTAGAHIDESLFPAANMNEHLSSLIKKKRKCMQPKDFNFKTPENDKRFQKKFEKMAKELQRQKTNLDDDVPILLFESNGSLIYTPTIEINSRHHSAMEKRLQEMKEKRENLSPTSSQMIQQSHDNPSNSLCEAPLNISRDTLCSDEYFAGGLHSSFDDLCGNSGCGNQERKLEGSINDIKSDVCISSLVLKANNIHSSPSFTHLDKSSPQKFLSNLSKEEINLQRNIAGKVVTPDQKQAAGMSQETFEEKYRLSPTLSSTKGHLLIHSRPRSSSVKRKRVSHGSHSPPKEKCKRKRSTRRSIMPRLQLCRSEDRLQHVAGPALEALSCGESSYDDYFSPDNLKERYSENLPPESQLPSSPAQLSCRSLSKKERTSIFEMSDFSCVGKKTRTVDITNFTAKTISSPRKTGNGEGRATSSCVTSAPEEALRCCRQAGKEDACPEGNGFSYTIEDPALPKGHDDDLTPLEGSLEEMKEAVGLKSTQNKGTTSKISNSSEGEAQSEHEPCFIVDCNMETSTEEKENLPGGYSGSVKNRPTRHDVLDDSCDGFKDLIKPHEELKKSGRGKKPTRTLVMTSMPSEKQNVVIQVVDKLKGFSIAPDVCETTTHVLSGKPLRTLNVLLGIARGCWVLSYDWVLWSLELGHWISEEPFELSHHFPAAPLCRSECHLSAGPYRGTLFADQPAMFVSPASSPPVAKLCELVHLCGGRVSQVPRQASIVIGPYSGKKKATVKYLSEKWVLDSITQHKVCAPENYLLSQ
UniProt Q9UM11: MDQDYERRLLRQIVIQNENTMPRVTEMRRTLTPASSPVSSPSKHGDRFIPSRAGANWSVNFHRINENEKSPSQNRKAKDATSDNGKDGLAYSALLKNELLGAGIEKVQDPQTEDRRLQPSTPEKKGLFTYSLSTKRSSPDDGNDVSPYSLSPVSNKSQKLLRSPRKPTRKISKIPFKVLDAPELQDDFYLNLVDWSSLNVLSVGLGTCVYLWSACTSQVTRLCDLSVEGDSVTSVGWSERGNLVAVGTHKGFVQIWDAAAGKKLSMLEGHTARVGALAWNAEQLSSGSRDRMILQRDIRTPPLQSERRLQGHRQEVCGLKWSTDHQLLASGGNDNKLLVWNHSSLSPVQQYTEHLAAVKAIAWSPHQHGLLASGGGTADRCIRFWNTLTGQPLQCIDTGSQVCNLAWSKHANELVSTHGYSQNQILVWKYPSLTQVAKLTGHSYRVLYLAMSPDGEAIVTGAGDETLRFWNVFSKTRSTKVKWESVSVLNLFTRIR

These are yes or no findings as the source states them, for the method shown. Binding seen in cells or lysates may run through a third protein. A result given as binding can be weak or reduced; the word gives no strength.

The target in this assay is GFP–MCPH1-L T753E (phosphomimetic of Thr754) (human) (UniProt Q8NEM0). Description: pull-down; GFP or GFP–MCPH1 variants immunoprecipitated from HEK293 lysate and held on GFP-Trap beads, incubated 3 h at 4°C with HEK293 cell extract containing FLAG–CDH1 (or CDH1 fragments) in NETN buffer (50 mM Tris pH 7.6, 150 mM NaCl, 1 mM EDTA, 1% NP-40); washed 3 times in TBST; Western blot; only the target purified. (In general: A western blot detects proteins with antibodies after separation by electrophoresis.)

Take FLAG–CDH1 (from UniProt Q9UM11 1-496): the binding entry is “binds”.
